In article PMC5979594:
These are yes or no findings as the source states them, for the method shown. In cells and extracts the contact can be indirect. Some results given as binding are weak or reduced against the parent protein; the word gives no strength.

T1: TBPH (TAR DNA-binding protein-43 homolog) (Drosophila melanogaster (endogenous in larval brain)) (UniProt O97468)
T1 sequence: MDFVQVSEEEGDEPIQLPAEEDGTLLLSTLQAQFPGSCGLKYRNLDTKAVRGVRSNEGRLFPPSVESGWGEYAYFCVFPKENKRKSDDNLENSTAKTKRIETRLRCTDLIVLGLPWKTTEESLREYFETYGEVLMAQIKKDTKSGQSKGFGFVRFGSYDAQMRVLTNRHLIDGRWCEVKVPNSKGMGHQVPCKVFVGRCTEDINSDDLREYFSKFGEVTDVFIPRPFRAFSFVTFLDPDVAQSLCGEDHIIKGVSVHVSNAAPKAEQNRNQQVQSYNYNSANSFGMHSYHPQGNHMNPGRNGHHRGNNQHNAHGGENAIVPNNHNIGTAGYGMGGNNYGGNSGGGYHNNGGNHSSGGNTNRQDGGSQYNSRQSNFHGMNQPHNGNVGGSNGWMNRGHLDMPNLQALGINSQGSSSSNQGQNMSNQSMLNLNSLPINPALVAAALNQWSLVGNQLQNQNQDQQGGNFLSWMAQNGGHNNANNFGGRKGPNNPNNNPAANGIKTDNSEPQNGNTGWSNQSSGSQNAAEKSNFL

B1: Squid hnRNP (protein, UniProt Q08473 1-344)
chain: MAENKQVDTEINGEDFTKDVTADGPGSENGDAGAAGSTNGSSDNQSAASGQRDDDRKLFVGGLSWETTEKELRDHFGKYGEIESINVKTDPQTGRSRGFAFIVFTNTEAIDKVSAADEHIINSKKVDPKKAKARHGKIFVGGLTTEISDEEIKTYFGQFGNIVEVEMPFDKQKSQRKGFCFITFDSEQVVTDLLKTPKQKIAGKEVDVKRATPKPENQMMGGMRGGPRGGMRGGRGGYGGRGGYNNQWDGQGSYGGYGGGYGGYGAGGYGDYYAGGYYNGYDYGYDGYGYGGGFEGNGYGGGGGGNMGGGRGGPRGGGGPKGGGGFNGGKQRGGGGRQQRHQPY
B2: Hrb87F hnRNP (protein, UniProt P48810 1-385)
chain: MAEQNDSNGNYDDGEEITEPEQLRKLFIGGLDYRTTDDGLKAHFEKWGNIVDVVVMKDPKTKRSRGFGFITYSQSYMIDNAQNARPHKIDGRTVEPKRAVPRQEIDSPNAGATVKKLFVGGLRDDHDEECLREYFKDFGQIVSVNIVSDKDTGKKRGFAFIEFDDYDPVDKIILQKTHSIKNKTLDVKKAIAKQDMDRQGGGGGRGGPRAGGRGGQGDRGQGGGGWGGQNRQNGGGNWGGAGGGGGFGNSGGNFGGGQGGGSGGWNQQGGSGGGPWNNQGGGNGGWNGGGGGGYGGGNSNGSWGGNGGGGGGGGGFGNEYQQSYGGGPQRNSNFGNNRPAPYSQGGGGGGFNKGNQGGGQGFAGNNYNTGGGGQGGNMGGGNRRY

Target: T1, TBPH (TAR DNA-binding protein-43 homolog) (Drosophila melanogaster (endogenous in larval brain))
Assay: co-IP; affinity-purified anti-TBPH antibody (4 ug) on Dynabeads protein A, 250 ug wild-type larval (brain) nuclear extract, overnight; washes in 10 mM HEPES-KOH pH 8, 100 mM NaCl, 0.05 Tween 20, 10% glycerol; Western blot for TBPH, Squid, Hrb87F, GAPDH; generic rabbit IgG as control

| Binder | binding |
| --- | --- |
| B1 | binds |
| B2 | binds |
